PubChem BioAssay AID504804, Drosophila RNAi Screening Center – 2011
In all, the deposit lists about 19,000 reagents; below is a random part of those that have a named target and a result. Over the whole deposit, 47 (0.25%) got an active call. 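Signals are raw, not normalised; exact z-scores behind calls not deposited; actives needed confirmation, so some wells reaching 2 SD are inactive.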 Names joined by + are all predicted targets of the reagent.

Purpose: 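Fly genes whose loss lessens doxorubicin-driven cell death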 (primary screen)
Cell system: Drosophila Kc cells
Reagent: long dsRNA against Drosophila genes, 0.5 µg dsRNA per well
Duration: 96 h (48 h knock-down, then 48 h drug)
Conditions: doxorubicin 5 µg/ml for 48 h, added 48 h after dsRNA
Measured: 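Viability measured as cellular ATP by luminescence after 48 h knock-down then 48 h doxorubicin at 5 µg/ml; unnormalised plate counts for each replicate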
Reading the numbers: raw ATP luminescence: higher = more viable cells, protection from doxorubicin
Rule for the call: 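z-score of 2 or more over plate mean in both duplicates, retained only when retests and separate dsRNAs confirm the protection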

no.	gene	DRSC id	raw ATP luminescence, replicate 1	raw ATP luminescence, replicate 2	activity call
1	CG14238	DRSC14732	38990	47410	inactive
2	snRNP-U1-70K	DRSC03612	23843	41160	inactive
3	Tom40	DRSC18796	44440	40420	inactive
4	Rpn8	DRSC04624	48077	46187	inactive
5	CG33483	DRSC14019	2.34e5	2.37e5	inactive
6	crol	DRSC03514	89703	74973	inactive
7	CG5023	DRSC15697	35650	35420	inactive
8	l(3)72Dr	DRSC10478	37940	33013	inactive
9	CG14246	DRSC14741	61350	72210	inactive
10	Npc1a	DRSC03378	43043	75307	inactive
11	apt	DRSC04671	47200	51223	inactive
12	CG18130	DRSC19790	4.00e5	3.55e5	inactive
13	Khc-73	DRSC07449	56597	71270	inactive
14	RpS12	DRSC11270	37123	35763	inactive
15	shn	DRSC05266	79777	86210	inactive
16	shn	DRSC07681	70593	58267	inactive
17	CG3916	DRSC15520	58023	46313	inactive
18	CG16700	DRSC19755	3.29e5	2.94e5	inactive
19	CG6013	DRSC15947	43283	45310	inactive
20	CG14537	DRSC02395	39467	71120	inactive
21	CG8545	DRSC07210	82060	52513	inactive

Reformatted: results already given.
gene | DRSC id | raw ATP luminescence, replicate 1 | raw ATP luminescence, replicate 2 | activity call
CG6013 | DRSC15947 | 43283 | 45310 | inactive
CG14537 | DRSC02395 | 39467 | 71120 | inactive
CG8545 | DRSC07210 | 82060 | 52513 | inactive

The listing continues.
no.	gene	DRSC id	raw ATP luminescence, replicate 1	raw ATP luminescence, replicate 2	activity call
22	mus81	DRSC18180	52560	50050	inactive
23	mus81	DRSC18644	67100	52810	inactive
24	arx	DRSC10386	15820	20353	inactive
25	Jhbp7	DRSC14408	67020	85040	inactive
26	Nplp2	DRSC09824	1.00e5	67190	inactive
27	CG4942	DRSC10462	66273	40987	inactive
28	l(2)37Cd	DRSC02069	83063	62390	inactive
29	CG4465	DRSC15584	56160	72300	inactive
30	twe	DRSC03628	1.14e5	74930	inactive
31	vtd	DRSC20839	2.98e5	2.78e5	inactive
32	stnB + stnA	DRSC20969	1.94e5	2.03e5	inactive
33	stnB + stnA	DRSC21112	2.30e5	2.70e5	inactive
34	stnB + stnA	DRSC21113	4.10e5	3.26e5	inactive
